Laboratory results published in article PMC10756756.
These are yes or no findings as the source states them, for the method shown. Binding seen in cells or lysates may run through a third protein. Some entries that bind do so weakly or less than the wild type. Where a sequence is shown, tags or fusion partners need not be part of it.

Amino acid sequences for entries named in this document (tags omitted).
UniProt P08183: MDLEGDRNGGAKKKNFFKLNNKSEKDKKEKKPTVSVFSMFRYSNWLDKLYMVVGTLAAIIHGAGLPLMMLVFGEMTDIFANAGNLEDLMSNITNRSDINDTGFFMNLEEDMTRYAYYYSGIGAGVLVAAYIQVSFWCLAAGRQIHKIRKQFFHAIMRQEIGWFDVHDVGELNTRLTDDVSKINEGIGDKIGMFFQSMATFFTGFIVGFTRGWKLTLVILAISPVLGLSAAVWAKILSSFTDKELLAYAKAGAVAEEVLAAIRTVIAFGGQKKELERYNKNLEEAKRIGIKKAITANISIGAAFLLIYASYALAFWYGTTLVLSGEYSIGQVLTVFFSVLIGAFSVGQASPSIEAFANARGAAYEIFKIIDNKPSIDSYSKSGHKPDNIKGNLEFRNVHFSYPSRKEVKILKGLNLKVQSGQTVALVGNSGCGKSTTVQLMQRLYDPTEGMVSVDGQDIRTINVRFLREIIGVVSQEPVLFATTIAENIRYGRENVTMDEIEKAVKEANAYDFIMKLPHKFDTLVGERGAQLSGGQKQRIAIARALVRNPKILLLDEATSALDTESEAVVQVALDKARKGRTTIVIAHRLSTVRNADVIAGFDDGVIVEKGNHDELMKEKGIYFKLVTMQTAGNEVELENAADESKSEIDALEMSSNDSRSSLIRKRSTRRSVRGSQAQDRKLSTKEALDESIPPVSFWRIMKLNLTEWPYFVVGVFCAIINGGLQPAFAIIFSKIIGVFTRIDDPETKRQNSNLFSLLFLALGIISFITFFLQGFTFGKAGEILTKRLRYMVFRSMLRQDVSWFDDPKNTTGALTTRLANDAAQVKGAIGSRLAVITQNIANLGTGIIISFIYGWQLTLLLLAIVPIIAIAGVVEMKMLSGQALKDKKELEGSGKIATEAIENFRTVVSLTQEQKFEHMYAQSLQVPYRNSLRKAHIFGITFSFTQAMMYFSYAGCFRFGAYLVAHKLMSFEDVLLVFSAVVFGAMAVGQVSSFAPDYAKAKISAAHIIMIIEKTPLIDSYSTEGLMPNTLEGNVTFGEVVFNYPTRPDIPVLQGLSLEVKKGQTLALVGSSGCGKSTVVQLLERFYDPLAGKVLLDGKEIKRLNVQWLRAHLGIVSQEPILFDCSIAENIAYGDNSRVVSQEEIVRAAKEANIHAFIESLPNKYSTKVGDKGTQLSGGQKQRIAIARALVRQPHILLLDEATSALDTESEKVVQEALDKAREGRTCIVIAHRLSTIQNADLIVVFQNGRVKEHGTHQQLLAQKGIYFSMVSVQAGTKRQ

T1: AUXIN …4 (AXR4), HA-His tagged (Arabidopsis thaliana) (UniProt Q9FZ33)
T1 sequence: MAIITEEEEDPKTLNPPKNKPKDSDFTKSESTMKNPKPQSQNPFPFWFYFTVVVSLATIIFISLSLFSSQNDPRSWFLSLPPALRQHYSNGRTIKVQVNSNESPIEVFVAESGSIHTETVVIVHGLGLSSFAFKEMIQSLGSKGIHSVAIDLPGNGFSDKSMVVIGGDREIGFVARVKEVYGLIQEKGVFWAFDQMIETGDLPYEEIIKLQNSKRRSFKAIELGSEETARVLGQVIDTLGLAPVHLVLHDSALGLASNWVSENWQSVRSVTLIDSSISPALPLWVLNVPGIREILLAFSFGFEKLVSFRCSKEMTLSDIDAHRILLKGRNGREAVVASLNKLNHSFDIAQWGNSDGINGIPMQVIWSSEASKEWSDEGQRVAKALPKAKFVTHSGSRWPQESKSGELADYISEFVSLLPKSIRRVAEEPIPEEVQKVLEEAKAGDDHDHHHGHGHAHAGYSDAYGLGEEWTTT

T2: AUXIN1 (AUX1), His-FLAG tagged (Arabidopsis thaliana) (UniProt Q96247)
T2 sequence: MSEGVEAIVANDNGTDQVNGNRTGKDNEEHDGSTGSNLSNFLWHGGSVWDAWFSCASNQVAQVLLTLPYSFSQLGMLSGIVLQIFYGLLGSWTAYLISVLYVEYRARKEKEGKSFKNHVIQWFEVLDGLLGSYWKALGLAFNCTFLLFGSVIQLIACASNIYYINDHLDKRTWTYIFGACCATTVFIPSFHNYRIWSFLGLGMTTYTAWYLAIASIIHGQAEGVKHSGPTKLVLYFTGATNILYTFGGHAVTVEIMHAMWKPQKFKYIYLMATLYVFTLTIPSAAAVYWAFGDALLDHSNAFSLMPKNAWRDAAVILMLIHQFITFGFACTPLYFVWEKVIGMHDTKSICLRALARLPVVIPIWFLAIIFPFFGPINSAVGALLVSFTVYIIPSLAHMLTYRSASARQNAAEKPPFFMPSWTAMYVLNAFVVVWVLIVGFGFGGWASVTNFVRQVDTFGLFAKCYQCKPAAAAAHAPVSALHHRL


Tests used:
[1] = target: T1, AUXIN …4 (AXR4), HA-His tagged (Arabidopsis thaliana); test: co-IP; HIS-AXR4 and HIS-ABCB1 co-expressed in Sf9 insect cells; AXR4 immunoprecipitated with anti-AXR4 antibodies (Pierce Co-IP Kit), binding overnight at 4°C in IP lysis/wash buffer; detection with anti-HIS antibodies
[2] = target: T2, AUXIN1 (AUX1), His-FLAG tagged (Arabidopsis thaliana); test: co-IP; AXR4 and FLAG-AUX1 co-expressed in Sf9 insect cells; FLAG-AUX1 immunoprecipitated with anti-FLAG resin (Pierce Co-IP Kit), binding overnight at 4°C in IP lysis/wash buffer (0.025 M Tris, 0.15 M NaCl, 0.001 M EDTA, 1% NP-40, 5% glycerol, pH 7.4); AXR4 detected with anti-AXR4 antibodies

| binding [1] | binding [2] | Molecule |
| --- | --- | --- |
| no binding |  | mammalian multidrug pump ABCB1, His tagged (from UniProt P08183 1-1280) |
|  | binds | AUXIN …4 (AXR4), HA-His tagged (protein, UniProt Q9FZ33 1-473) MAIITEEEEDPKTLNPPKNKPKDSDFTKSESTMKNPKPQSQNPFPFWFYFTVVVSLATIIFISLSLFSSQNDPRSWFLSLPPALRQHYSNGRTIKVQVNSNESPIEVFVAESGSIHTETVVIVHGLGLSSFAFKEMIQSLGSKGIHSVAIDLPGNGFSDKSMVVIGGDREIGFVARVKEVYGLIQEKGVFWAFDQMIETGDLPYEEIIKLQNSKRRSFKAIELGSEETARVLGQVIDTLGLAPVHLVLHDSALGLASNWVSENWQSVRSVTLIDSSISPALPLWVLNVPGIREILLAFSFGFEKLVSFRCSKEMTLSDIDAHRILLKGRNGREAVVASLNKLNHSFDIAQWGNSDGINGIPMQVIWSSEASKEWSDEGQRVAKALPKAKFVTHSGSRWPQESKSGELADYISEFVSLLPKSIRRVAEEPIPEEVQKVLEEAKAGDDHDHHHGHGHAHAGYSDAYGLGEEWTTT |
